From PubChem BioAssay AID2551 (National Center for Advancing Translational Sciences (NCATS), 2010)
Out of some 310,000 compounds screened, about 17,000 (5.5%) were called active. Inconclusive results, whose numbers are uncertain, are shown with a selection of clear calls. The call rests on the fitted dose curve; in most records, active means well fitted inhibition curve with a large enough effect; inconclusive means small, poorly fitted or top-dose-only effect, or effect the other way; inactive means no such curve, though single readings can be large or run the other way. Potencies of inconclusive entries are doubtful fits and often do not repeat.

Sequences of proteins named here, by UniProt entry; tags and fusion partners are left off. A change or cut given only in a name is not applied to a line headed by its entry.
UniProt P51450: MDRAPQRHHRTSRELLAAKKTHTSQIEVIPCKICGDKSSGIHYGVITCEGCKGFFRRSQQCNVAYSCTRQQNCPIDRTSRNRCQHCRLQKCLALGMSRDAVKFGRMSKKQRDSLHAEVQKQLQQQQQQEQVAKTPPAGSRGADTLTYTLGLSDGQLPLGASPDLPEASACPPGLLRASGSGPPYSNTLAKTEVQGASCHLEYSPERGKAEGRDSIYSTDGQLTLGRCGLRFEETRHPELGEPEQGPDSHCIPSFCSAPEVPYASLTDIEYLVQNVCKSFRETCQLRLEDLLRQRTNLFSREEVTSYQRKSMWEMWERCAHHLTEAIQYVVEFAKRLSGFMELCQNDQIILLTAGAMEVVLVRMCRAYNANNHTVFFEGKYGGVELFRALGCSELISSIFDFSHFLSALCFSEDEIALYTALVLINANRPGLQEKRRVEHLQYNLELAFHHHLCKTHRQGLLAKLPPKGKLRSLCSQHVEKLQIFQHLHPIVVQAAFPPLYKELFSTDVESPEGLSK

Each molecule was assayed against Nuclear receptor ROR-gamma (Mus musculus) (UniProt P51450) (assay: qHTS for inhibitors of ROR gamma transcriptional activity). Settings: Drosophila S2 Gal4-RORgamma UAS-luciferase reporter, 20 h; activity change, negative = inhibition: at 53.6 µM (top of the series).
In short: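 In this cell-based reporter format, copper sulfate (700 uM final) drives Gal4–ROR gamma fusion expression from a metallothionein promoter in Drosophila Schneider cells; compounds preincubated 1 hr, reporter read after 20 hr at ambient temperature.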
Further: nearly all actives have a fitted effect of over 60% in size.
On the % scale 0 is the no-effect control and ±100 the full control effect; potency means the concentration at half of the fitted maximal effect.

SMILES	Potency	activity change, negative = inhibition
O=C(N/N=C/c1ccc2c(c1)OCO2)c1ccccn1	inconclusive: 10 µM [inhibitor, single point]	
COC(=O)C1=C(N)OC2=C(C(=O)CCC2)C1c1cccs1 (stereo unspecified)		inactive: -20.5%
CC(C)c1cc(-c2n[nH]c(=S)n2Cc2ccccc2)cs1	active: 0.562 µM	
COc1cc(NC(=O)CSc2nc(C)c(C)c(C)n2)c(C)cc1[N+](=O)[O-]	inconclusive: 22.4 µM [activator, single point]	
Cc1c(Cl)cccc1NC(=S)Nn1cnnc1	inconclusive: 22.4 µM [inhibitor, single point]	
CCN(CC)CCn1c(/N=C/c2cc(Br)ccc2O)nc2ccccc21	active: 3.98 µM	
S=c1[nH]nc(-c2cccc(Cl)c2)n1Cc1ccccc1	active: 2.51 µM	
N#Cc1c(NC(=O)c2nc3ncccn3n2)sc2c1CCCCC2	inconclusive: 3.16 µM [inhibitor, partial curve, poor fit]	
CN(C)S(=O)(=O)c1ccc(NC(=O)c2cc(-c3cccs3)nc3ccccc23)cc1		inactive: -0.985%
O=C1CC(N2CCC(Cc3ccccc3)CC2)C(=O)N1CCc1ccccc1 (stereo unspecified)	inconclusive: 35.5 µM [inhibitor, single point]	
Cc1ccc(S(=O)(=O)N2CCCC(C(=O)NCC(C)C)C2)cc1 (stereo unspecified)	inconclusive: 10 µM [inhibitor, partial curve]	
COC(=O)c1cc(NC(=S)N2CCN(c3ccccn3)CC2)cc(C(=O)OC)c1		inactive: 3.8%
Nn1c(SCc2cccc3ccccc23)nnc1-c1ccco1	inconclusive: 11.2 µM [activator, partial curve]	
Cc1n[nH]c(=S)n1/N=C/c1ccc(Br)o1	inconclusive: 8.91 µM [inhibitor, single point]	
COC(=O)[C@H](Cc1ccccc1)NC(=O)N1Cc2ccccc2C[C@H]1C(=O)OC	inconclusive: 20 µM [activator, partial curve, poor fit]	
COc1cccc(/C=C/C(=O)OCC(=O)Nc2cccc(S(=O)(=O)N3CCCCC3)c2)c1OC	inconclusive: 35.5 µM [activator, single point]	
CC(C)(C)OC(=O)NCCCCCc1nnc(SCc2ccc(F)cc2)o1	inconclusive: 8.91 µM [activator, partial curve]	
N#CCC(=O)Nc1ccc(C(=O)OCC(=O)NCCCc2ccccc2)cc1		inactive: 8.89%
CCOc1ccc(S(=O)(=O)N2CCN(C(=S)NCc3ccco3)CC2)cc1	inconclusive: 35.5 µM [activator, single point]	
Cc1nc2ccc(NC(=O)c3cccs3)cc2c(=O)n1Cc1ccc(Cl)cc1	inconclusive: 10 µM [activator, partial curve]	
Cc1cc(C)c(S(=O)(=O)N2CCCc3ccccc32)c(C)c1	inconclusive: 22.4 µM [activator, single point]	
O=C(O)c1ccc(-n2nc(C(F)(F)F)c3c2CCCC3)cc1	inconclusive: 17.8 µM [activator, single point]	
O=C(Nc1ccccc1)c1cccc(S(=O)(=O)Oc2ccc([N+](=O)[O-])cc2)c1	inconclusive: 22.4 µM [activator, single point]	
Cc1c(C)n(CCO)c2ncnc(Nc3ccc(F)cc3)c12		inactive: 39.4%

4 entries picked at random from the list so far:
SMILES	Potency	activity change, negative = inhibition
N#CCC(=O)Nc1ccc(C(=O)OCC(=O)NCCCc2ccccc2)cc1		inactive: 8.89%
O=C(N/N=C/c1ccc2c(c1)OCO2)c1ccccn1	inconclusive: 10 µM [inhibitor, single point]	
CCOc1ccc(S(=O)(=O)N2CCN(C(=S)NCc3ccco3)CC2)cc1	inconclusive: 35.5 µM [activator, single point]	
COC(=O)C1=C(N)OC2=C(C(=O)CCC2)C1c1cccs1 (stereo unspecified)		inactive: -20.5%

The listing continues:

SMILES	Potency	activity change, negative = inhibition
O=C(CN1C(=O)c2cccnc2Oc2ccc(Cl)cc21)Nc1ccccc1F	inconclusive: 22.4 µM [activator, single point]	
O=C(CC1(O)C(=O)Nc2ccc(Br)cc21)c1ccc2c(c1)OCO2 (stereo unspecified)		inactive: 8.47%
CC(=O)OCC(NC(=O)C(Cc1ccccc1)NC(=O)OC(C)(C)C)C1OC(n2cc(C)c(=O)[nH]c2=O)C(OC(C)=O)C1OC(C)=O (stereo unspecified)		inactive: -10.4%
Cc1cccc(N=C2NC(=O)/C(=C/c3cccn3C)S2)c1	inconclusive: 35.5 µM [inhibitor, single point]	
COc1ccccc1N1CCN(C(=O)CN2C(=O)c3ccccc3C2=O)CC1	inconclusive: 11.2 µM [activator, partial curve]	
CC(=O)Nc1ccc(NC(=O)c2cccc(-c3cc4ccccc4oc3=O)c2)cc1	inconclusive: 12.6 µM [activator, partial curve]	
CSCCC(NC(=O)c1ccco1)C(=O)OCC(=O)Nc1sccc1C#N (stereo unspecified)		inactive: -1.76%
COc1ccc(NS(=O)(=O)c2cc3c4c(c2)C(C)C(=O)N4CCC3)cc1 (stereo unspecified)		inactive: 27%
C/C(=N\Nc1nc(-c2cc(C)ccc2C)cs1)c1cc2c(ccc3ccccc32)oc1=O	inconclusive: 11.2 µM [inhibitor, single point]	
CCOC(=O)c1ccc(-c2ccc(C3Nc4ccccc4C(=O)N3O)o2)cc1 (stereo unspecified)	active: 11.2 µM	
COc1ccc(Oc2ccc(C(F)(F)F)cc2NC(=O)c2ccc(F)cc2)cc1		inactive: 0.163%
COc1ccccc1NC(=O)[C@H](COCc1ccccc1)NC(=O)OC(C)(C)C		inactive: -0.0777%
CC(=O)N1CC(C)Sc2ccc(S(=O)(=O)NCc3ccc(Cl)cc3)cc21 (stereo unspecified)	inconclusive: 20 µM [activator, single point]	
c1cncc(-c2nccc(-n3ccnc3)n2)c1		inactive: -0.121%
CC(C)C(=O)Nc1ncc(Cc2cccc(Cl)c2)s1	active: 11.2 µM	
CCOC(=O)CN(C)Cc1cn[nH]c1-c1ccc2cc(OC)ccc2c1	inconclusive: 15.8 µM [activator, single point]	
CCOC(=O)c1c(C)nc2sc(C(N)=O)c(N)c2c1-c1ccc(OC)cc1		inactive: -38.1%
COc1ccc(-n2ncc3c(=O)n(CC(=O)N4c5ccccc5CC4C)cnc32)cc1 (stereo unspecified)	inconclusive: 3.16 µM [activator, full curve]	
O=C(Nc1nccs1)c1ccc(-c2ccccc2Cl)o1	inconclusive: 5.01 µM [inhibitor, full curve]	
Cc1cc2oc(=O)cc(C)c2cc1NC(=O)CCl	inconclusive: 1.26 µM [inhibitor, full curve, poor fit]	
N#CCCS(=O)(=O)c1nnnn1-c1ccccc1	active: 2.82 µM	
COc1ccc(NS(=O)(=O)c2ccc(C)c(NC(=O)NC3CCCCC3)c2)cc1	inconclusive: 12.6 µM [activator, partial curve]	
Cc1ccc(C2(C)NC(=O)N(CC(=O)Nc3cc(S(=O)(=O)N4CCOCC4)ccc3C)C2=O)cc1 (stereo unspecified)	inconclusive: 31.6 µM [activator, single point]	
Cc1ccc(NC(=O)CC2S/C(=N/N=C3/NC(=O)CS3)NC2=O)cc1 (stereo unspecified)	inconclusive: 10 µM [inhibitor, partial curve, poor fit]	

SMILES	Potency	activity change, negative = inhibition
CCc1ccc(OCc2ccccc2C(=O)Nc2ccc3nc(C)cc(N)c3c2)cc1	active: 11.2 µM	
C/C(=N\NC(=O)CSCc1ccccc1Cl)c1cc(O)ccc1O	active: 5.01 µM	
COc1ccc(-c2cc(C(=O)N/N=C/c3sccc3C)c3ccccc3n2)c(OC)c1	active: 4.47 µM	
Cc1ccc(OCC(=O)N(Cc2ccc(N(C)C)cc2)C2CCS(=O)(=O)C2)cc1 (stereo unspecified)		inactive: 18.9%
COc1ccc(C(=O)NC(=S)NC2CCCCC2)cc1	active: 2.82 µM	
COCCn1nnnc1C(c1ccc(OC)c(OC)c1)N1CCN(c2nc3ccccc3s2)CC1 (stereo unspecified)		inactive: -26%
COc1ccc(NC(=S)N(CCCN2CCCC2)Cc2cccn2Cc2ccc(Cl)cc2)cc1Cl	inconclusive: 25.1 µM [inhibitor, single point]	
Cc1cccc(NC(=S)N(CCCN2CCCC2)Cc2cccn2Cc2ccc(Cl)cc2)c1	inconclusive: 15.8 µM [inhibitor, single point]	
CCOC(=O)c1cnc2c(OC)cccc2c1N1CC(C)CC(C)C1 (stereo unspecified)	inconclusive: 20 µM [inhibitor, partial curve]	
COc1ccc(-c2cnnc(CCCn3ccnc3-c3ccccc3)n2)cc1		inactive: -0.291% [at 10 µM]
CS(=O)(=O)N(CC(=O)NCCSCc1cccc(Cl)c1)c1ccc2c(c1)OCO2		inactive: 5.11%
COc1ccc(-c2nn(-c3ccccc3)cc2C(=O)OCC(=O)c2ccc(C)c([N+](=O)[O-])c2)cc1	inconclusive: 35.5 µM [inhibitor, single point]	
Cc1ccc(S(=O)(=O)N(Cc2n[nH]c(=S)n2-c2ccccc2)c2ccccc2)cc1	inconclusive: 7.08 µM [inhibitor, partial curve]	
Cc1cc(C)c(S(=O)(=O)N(C2=NCCS2)S(=O)(=O)c2c(C)cc(C)cc2C)c(C)c1	active: 15.8 µM	
O=C(NCC1CCCO1)C(c1cccs1)N(C(=O)c1ccc(-c2ccccc2)[nH]1)C1CCCC1 (stereo unspecified)	inconclusive: 35.5 µM [activator, single point]	
Cc1cccc(N2CCN(C(=S)Nc3ccc4nc(N5CCN(C)CC5)cc(C)c4c3)CC2)c1C	active: 4.47 µM	
CCN(CC)c1cc(Cl)c2nonc2c1N		inactive: -0.642%
CC1(COc2ccc(CC3SC(=O)NC3=O)cc2)CCCCC1 (stereo unspecified)	inconclusive: 12.6 µM [inhibitor, partial curve, poor fit]	
COCc1cc(C)nc2sc(C(=O)NC3CCCCC3)c(N)c12	inconclusive: 0.178 µM [activator, full curve, poor fit]	
COc1ccccc1-c1nnc(SCC(=O)Nc2nc(-c3ccccc3)cs2)n1C	inconclusive: 1.58 µM [activator, partial curve]	
CCC(=O)NC(=S)NNC(=O)COc1ccc(Br)cc1	inconclusive: 35.5 µM [inhibitor, single point]	
COc1ccc(NC(=O)c2cccc(-n3cnnn3)c2)cc1	inconclusive: 0.224 µM [inhibitor, partial curve]	
CCCc1cc(C(=O)NCc2cccs2)no1	inconclusive: 12.6 µM [activator, partial curve]	
